# According to the supplement of paper PMC8007513:
# Structures can show the parent of a compound that is named as a salt. ± gives the standard error. Most of the strong results are listed elsewhere, so they are rarer here than in the full data.
# Tested on: Trichoderma virens ATCC 9645
# Experiment: growth yield (OD600) with compound + IPBC relative to untreated control; higher = less growth inhibition
# Details: compound concentration: 100 uM, IPBC concentration: 200 ng/ml
# Method in brief: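 Trichoderma virens ATCC 9645 spores from 7-day potato dextrose agar plates were suspended in potato dextrose broth at 15,000 spores ml^−1. Aliquots of 100 μl with library compounds at 100 μM final, with or without a co-applied biocide at 200 ng ml^−1, were grown in 96-well plates at 30 °C. OD600 was read at 40 h and 72 h on a BioTek EL800. Growth is expressed relative to the control without either agent, as means of duplicate screens.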
smiles,measurement,setting,value
"CN1[C@@H]2CC[C@H]1C[C@@H](OC(=O)C(O)c1ccccc1)C2 (mixture of isomers) [Homatropine hydrobromide (R,S)] + CCCCNC(=O)OCC#CI [3-iodo-2-propynyl butylcarbamate (IPBC)]",growth yield,40 h,91.2 ± 4.8%
same,growth yield,72 h,92.2 ± 3.5%
